Measurements taken from patent EP4674859A1 (dated 2024).

Assay: general procedure: Fmoc solid-phase peptide synthesis; 2-chlorotrityl resin
Details: late stage modification step

“(2-(4-(6-methyl-1,2,4,5-tetrazin-3-yl)phenyl)acetyl)glycylglycyl-L-serylglycylglycylglycyl-L-serylglycylglycylglycyl-L-seryl-L-aspartylglycyl-L-leucyl-L-histidine” showed a step yield of 71%.
